No constants are given. Whether binding was seen depends on the method and setting. Binding seen in cells or lysates may run through a third protein. Some entries that bind do so weakly or less than the wild type.
Assays:
[1] = target: Activated CDC42 kinase 1 (ACK1), full-length, HA-tagged (UniProt Q07912); experiment: co-IP; HEK293T co-transfected with FLAG-CSK and HA-ACK1 or HA-cACK1; MG132 25 uM, 3 hr; lysates immunoprecipitated with HA beads, immunoblotted with FLAG antibodies
[2] = target: ACK1, endogenous in TRAMP-C2 cells (mouse (endogenous in TRAMP-C2)) (UniProt O54967); experiment: co-IP; endogenous proteins; C4-2B and TRAMP-C2 cells treated with vehicle (DMSO) or (R)-9b; lysates immunoprecipitated with ACK1 or EZH2 antibody, immunoblotted

By UniProt entry, the sequences of proteins in these tests, tags left out.
UniProt Q07912: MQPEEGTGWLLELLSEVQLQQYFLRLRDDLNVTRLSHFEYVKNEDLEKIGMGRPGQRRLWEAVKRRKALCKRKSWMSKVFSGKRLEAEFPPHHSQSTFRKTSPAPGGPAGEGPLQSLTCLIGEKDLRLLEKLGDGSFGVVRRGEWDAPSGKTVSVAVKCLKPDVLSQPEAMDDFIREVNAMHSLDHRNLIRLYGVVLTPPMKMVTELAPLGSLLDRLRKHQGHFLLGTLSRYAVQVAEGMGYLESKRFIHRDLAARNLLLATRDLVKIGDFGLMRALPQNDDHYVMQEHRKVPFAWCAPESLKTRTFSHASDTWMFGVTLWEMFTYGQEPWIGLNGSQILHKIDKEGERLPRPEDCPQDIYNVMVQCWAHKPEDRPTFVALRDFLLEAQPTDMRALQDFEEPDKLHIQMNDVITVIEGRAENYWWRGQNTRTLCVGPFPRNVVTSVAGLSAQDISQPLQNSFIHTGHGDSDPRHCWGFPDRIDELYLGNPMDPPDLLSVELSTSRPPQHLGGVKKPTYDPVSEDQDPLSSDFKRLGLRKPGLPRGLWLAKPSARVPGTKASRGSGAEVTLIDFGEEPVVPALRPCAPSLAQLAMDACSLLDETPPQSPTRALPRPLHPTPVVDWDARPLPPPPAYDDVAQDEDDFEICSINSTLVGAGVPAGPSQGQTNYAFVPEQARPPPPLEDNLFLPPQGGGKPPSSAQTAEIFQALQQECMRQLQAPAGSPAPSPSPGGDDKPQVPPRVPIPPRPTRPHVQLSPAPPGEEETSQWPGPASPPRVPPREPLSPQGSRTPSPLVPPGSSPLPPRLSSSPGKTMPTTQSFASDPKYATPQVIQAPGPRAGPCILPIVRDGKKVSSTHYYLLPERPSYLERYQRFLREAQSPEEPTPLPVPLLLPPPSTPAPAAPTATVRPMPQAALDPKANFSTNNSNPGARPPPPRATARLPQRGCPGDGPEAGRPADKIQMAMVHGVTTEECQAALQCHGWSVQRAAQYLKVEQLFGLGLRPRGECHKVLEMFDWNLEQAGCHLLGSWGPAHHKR
UniProt O54967: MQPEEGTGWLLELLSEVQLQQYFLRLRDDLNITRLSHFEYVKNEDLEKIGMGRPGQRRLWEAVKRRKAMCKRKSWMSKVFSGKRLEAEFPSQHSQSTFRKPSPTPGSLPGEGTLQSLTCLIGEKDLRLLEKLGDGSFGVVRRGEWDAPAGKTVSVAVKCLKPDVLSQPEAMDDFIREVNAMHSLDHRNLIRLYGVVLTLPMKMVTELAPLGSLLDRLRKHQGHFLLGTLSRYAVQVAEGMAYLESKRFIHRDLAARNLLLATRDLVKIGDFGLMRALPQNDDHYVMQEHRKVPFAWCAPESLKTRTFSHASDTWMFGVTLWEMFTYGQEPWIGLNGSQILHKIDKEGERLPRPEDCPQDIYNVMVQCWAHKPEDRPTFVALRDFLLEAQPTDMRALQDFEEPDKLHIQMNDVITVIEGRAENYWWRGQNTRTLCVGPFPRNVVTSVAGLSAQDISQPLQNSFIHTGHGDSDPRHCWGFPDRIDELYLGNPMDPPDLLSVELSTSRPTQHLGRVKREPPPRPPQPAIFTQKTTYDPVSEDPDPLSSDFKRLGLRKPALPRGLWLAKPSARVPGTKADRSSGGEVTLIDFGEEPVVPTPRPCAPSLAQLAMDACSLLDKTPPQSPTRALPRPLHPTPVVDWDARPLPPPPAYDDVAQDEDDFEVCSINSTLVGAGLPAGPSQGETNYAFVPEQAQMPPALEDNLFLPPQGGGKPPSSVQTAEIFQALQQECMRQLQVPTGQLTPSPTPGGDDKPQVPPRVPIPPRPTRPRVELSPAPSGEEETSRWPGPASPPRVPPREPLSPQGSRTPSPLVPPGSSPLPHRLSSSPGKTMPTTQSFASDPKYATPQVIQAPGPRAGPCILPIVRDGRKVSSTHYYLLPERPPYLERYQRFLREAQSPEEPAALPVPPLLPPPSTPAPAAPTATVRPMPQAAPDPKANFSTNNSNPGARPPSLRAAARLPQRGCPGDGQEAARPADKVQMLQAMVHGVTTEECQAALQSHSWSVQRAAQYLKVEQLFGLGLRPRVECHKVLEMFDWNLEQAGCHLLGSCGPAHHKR
UniProt P41240: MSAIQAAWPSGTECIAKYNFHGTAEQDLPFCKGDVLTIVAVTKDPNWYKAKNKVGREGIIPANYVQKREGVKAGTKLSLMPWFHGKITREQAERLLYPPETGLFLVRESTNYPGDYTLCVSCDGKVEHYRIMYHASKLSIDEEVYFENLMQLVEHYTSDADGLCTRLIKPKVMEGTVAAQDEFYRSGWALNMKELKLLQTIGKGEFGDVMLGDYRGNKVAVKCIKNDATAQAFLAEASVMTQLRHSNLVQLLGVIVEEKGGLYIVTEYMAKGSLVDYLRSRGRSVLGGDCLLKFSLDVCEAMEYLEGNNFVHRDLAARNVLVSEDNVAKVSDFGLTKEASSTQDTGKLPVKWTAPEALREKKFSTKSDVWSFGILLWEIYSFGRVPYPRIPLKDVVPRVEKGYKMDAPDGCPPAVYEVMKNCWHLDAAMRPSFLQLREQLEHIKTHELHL
UniProt Q61188: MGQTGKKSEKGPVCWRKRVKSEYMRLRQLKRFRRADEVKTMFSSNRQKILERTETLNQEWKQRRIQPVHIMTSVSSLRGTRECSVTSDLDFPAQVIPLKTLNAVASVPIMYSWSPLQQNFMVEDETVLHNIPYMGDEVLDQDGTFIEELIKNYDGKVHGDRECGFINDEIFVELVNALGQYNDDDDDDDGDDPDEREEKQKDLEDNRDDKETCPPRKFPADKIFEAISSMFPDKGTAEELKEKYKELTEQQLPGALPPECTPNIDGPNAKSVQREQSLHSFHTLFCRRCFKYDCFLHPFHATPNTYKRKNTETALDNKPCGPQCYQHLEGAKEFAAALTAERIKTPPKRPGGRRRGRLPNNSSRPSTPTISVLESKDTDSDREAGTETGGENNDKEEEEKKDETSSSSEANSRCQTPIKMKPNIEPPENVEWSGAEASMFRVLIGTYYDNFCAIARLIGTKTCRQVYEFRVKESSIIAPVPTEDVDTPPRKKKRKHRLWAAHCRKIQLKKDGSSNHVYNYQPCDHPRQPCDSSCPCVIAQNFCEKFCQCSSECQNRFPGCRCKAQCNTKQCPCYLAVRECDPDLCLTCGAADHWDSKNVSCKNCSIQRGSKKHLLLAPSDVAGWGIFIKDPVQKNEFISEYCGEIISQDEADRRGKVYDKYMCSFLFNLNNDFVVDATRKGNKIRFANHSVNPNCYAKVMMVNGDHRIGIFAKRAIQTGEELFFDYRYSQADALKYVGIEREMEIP

Row | binding [1] | binding [2] | Substance
1 | binds | – | C-terminal Src kinase (CSK), FLAG-tagged (from UniProt P41240 1-450) (enzyme)
2 | – | binds | EZH2, endogenous in TRAMP-C2 cells (from UniProt Q61188 1-746) (enzyme)
